Results: the supplement of paper PMC10338343
± gives the standard deviation. The entries are a selection whose mix differs from that of the whole data set. Many entries were measured with a wide error.

Each sequence was assayed on MILI (PIWIL2) piRISC loaded with piRNA #2 (26 nt) (assay: pre-steady-state target cleavage rate (min^-1); MIWI and MILI are mouse PIWI proteins and EfPiwi is from a freshwater sponge; tags in brackets are library labels; higher = faster piRNA-guided slicing of the target). Details: guide: piRNA #2 5'p-UUAGGUAACCCAGUAGAUCCAGAGGA; auxiliary factor: 500 nM mouse GTSF1.
Procedure: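 Cleave-'n-Seq: a library of target RNAs (target site embedded in constant flanks, ACAGCATTCCGCGTTAGTGATATCCG... 5' flank; DNA-blocked outside the site) at 0.1 nM was incubated with 1 nM active mouse MILI or MIWI piRISC (synthetic 5'-monophosphorylated piRNA guide) with or without 500 nM mouse GTSF1 at 33 °C for 1 min to 16 h. Uncleaved targets were sequenced and normalised to non-target controls, and the pooled three trials were fitted to a burst-and-steady-state model to give the pre-steady-state cleavage rate (min^-1; k3 is constrained to at most 1e-4). Sequence is the target site only; target names encode pairing extent (gX:gY) and contiguous / 1-mismatch / 2-mismatch / bulge geometry. Fits with R² ≤ 0 are excluded.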

Sequence	pre-steady-state target cleavage rate
CUUAAGGUCUGGAUCUACUCGGUUACCUAA	0.000586 ± 0.019
CUUAAGGAGAGGUUCUACUGGGUUUCCUAA	0.00457 ± 0.0051
CUUAAGGAGACCUUCUACUGGGUUAUCUAA	0.000799 ± 0.0092
CUUAUCCUCUGCAUCUACUGGGUUACGUAA	0.483 ± 0.2
CUUAAGGAGACGCUCUACUGGGUUACCUAA	0.00207 ± 0.0046
CUUAAGGAGACCAUCUAGUGGGUUACCUAA	0.00125 ± 0.0082
CUUAAGGAGAGGAUCUUCUGGGUUACCAAA	0.000563 ± 0.017
CUUAACCUCUGGAUCUACUGUGGUUACCUAA	0.00108 ± 0.0083
CUUAAGGAGACGAUCUACUGGGUUGCCUAA	0.00438 ± 0.0046
CUUAAGGAGAGGAGCUACUGGGUUACCUAA	0.00331 ± 0.0043
CUUAAGGAGAGGUUCAACUGGGUUACCUAA	0.00118 ± 0.0053
CUUAAGGUCUGGAUCUACUGGGAAUCCUAA	0.00153 ± 0.0057
CUUAAGGACUGGAUCUUCUGCGUUACCUAA	0.000962 ± 0.021
CUUAUCCUCUGGAACUACUGGCUUACCUAA	0.00289 ± 0.003
CUUAAGGACUGCGAUCUACUGGGUUACCUAA	0.00882 ± 0.0099
CUUAAGGAGACCGUCUACUGGGUUACCUAA	0.000155 ± 0.028
CUUAAGGAGACCUUCUACUGGGUUACCGUAA	0.000537 ± 0.01
CUUAAGGAGACGAUGUACAGGGUUACCUAA	0.00178 ± 0.0043
CUUAAGGAGUGGAUGUACUGGGUAACCUAA	0.0064 ± 0.0083
CUUAUCCUCUGCAUCUACUGCGUUACCUAA	0.0198 ± 0.0066
CUUAAGGAGACCAAGUACUGGGUUACCUAA	0.000875 ± 0.0092
CUUAAGGAGACCUACUACUGGGUUACCCAA	0.000318 ± 0.024
CUUAAGCUCUGGAACUACUCGGUUACCUAA	0.00214 ± 0.0039
CUUAAGGUCUGGAUCUACUGAGGUUACCUAA	0.0022 ± 0.0051

Sequence	pre-steady-state target cleavage rate
CUUAAGGAGAGGUUCUUCUGGGUUACCUAA	0.00217 ± 0.0036
CUUAAGGAGUGGAUCAACUGGGUUAGCUAA	0.000369 ± 0.018
CUUAAGGACUGGUUCUACUGCGUUACCUAA	0.00288 ± 0.013
CUUAAGGAGAGUAUCUACUGGGUUACCUAA	0.00299 ± 0.0039
CUUAAGGAGACCUAGAUUUGGGUUACCUAA	0.000358 ± 0.025
CUUAAGGAGAGGUUCUACUGGGUUACGUAA	0.000139 ± 0.034
CUUAAGGACUGGAUCUACUGGGUAUCCUAA	0.00113 ± 0.021
CUUAAGGAGACCUAGUACUGGGUUACCUAU [g2:g15:cont:t1U]	0.000594 ± 0.011
CUUAAGGAGACGAUCUAGUGGGAUACCUAA	0.000556 ± 0.0092
CUUAAGGAGACCUAGAUGUGGGUUACCUAG [g2:g12:cont:t1G]	0.000253 ± 0.032
CUUAAGGACUGGAUCUACUGGGUUACCAUAA	0.0062 ± 0.0082
CUUAAGGAGACCUAGUACUGGGUUACCUAA	0.000567 ± 0.0079
CUUAAGGAGACCUUCGUACUGGGUUACCUAA	0.000769 ± 0.021
CUUAAGGAGACGAUCUACUGGGUUACUUAA	0.000826 ± 0.012
CUUAAGGAGACGAUCUACUGGGUUACCCAA	0.00186 ± 0.007
CUUAAGGAGACGAUCUACUGGAUUACCUAA	0.00108 ± 0.015
CUUAAGGAGACGAUCUACAGGGUUACGUAA	0.000591 ± 0.0082
CUUAAGCACUGGAUCUACUCGGUUACCUAA	0.000739 ± 0.022
CUUAAGGAGACGAUCUACUGGGUUACGCUAA	0.000629 ± 0.01
CUUAAGGAGACGAUCCACUGGGUUACCUAA	0.00487 ± 0.0056
CUUAAGGAGACCUAGAUCUCCGUUACCUAA	0.000395 ± 0.023
CUUAUCCUCUGGUUCUACUGGGUUUCCUAA	2.2 ± 1.7
CUUAAGGAGACCAUCUUCUGCGUUACCUAA	0.000704 ± 0.0085
CUUAAGGAGACCAUCAACUGGCUUACCUAA	0.000182 ± 0.035

Sequence	pre-steady-state target cleavage rate
CUUAAGGUCUGGAUCUACUGGGUAACCAAA	0.000926 ± 0.011
CUUAAGGAGAGGAUCCUACUGGGUUACCUAA	0.000939 ± 0.0058
CUUAAGGAGACCAUCUACUGGGUAUACCUAA	0.000713 ± 0.014
CUUAAGGUCUGGAUCUAGACGGUUACCUAA	0.00126 ± 0.01
CUUAAGGACUCGAUCUACUCGGUUACCUAA	0.000356 ± 0.039
CUUAAGGAGACCUUCUACUGGGUUACGUAA	0.000752 ± 0.011
CUUAAGGAGUGCAUCUACUGGGUUACGUAA	0.000759 ± 0.0099
CUUAAGGACUGGAUCUAGUGCGUUACCUAA	0.00155 ± 0.012
CUUAAGGAGACGAUCUACUCGGGUUACCUAA	0.000875 ± 0.013
CUUAAGGAGUGGAUCUCUGGGUUACCUAA	0.000774 ± 0.03
CUUAAGGAGUGGAUCUACUGGAUUACCUAA	0.00236 ± 0.0092
CUUAUCCUCUGGAUCUUCUGGCUUACCUAA	0.000416 ± 0.026
CUUAAGGAGACGAUCUACUGGGUUACGUUA	0.000486 ± 0.019
CUUAUCCUCUGGGAUCUACUGGGUUACCUAA	0.137 ± 0.023
CUUAAGGUCUGGAUCUACUGCGAUACCUAA	0.000891 ± 0.013
CUUAAGGAGUGGAUCUACUGGGUAUCCUAA	0.00173 ± 0.0056
CUUAAGGAGACCAUCUACUGGGUUACCAA	0.000568 ± 0.016
CUUAUCCUCUGGAUCUAGACCCAAUGGAUA [g14:g26:cont:t1A]	0.000373 ± 0.024
CUUAAGGAGUGCAUCUACUGGGUUACCAAA	0.00197 ± 0.0061
CUUAAGCUCUGGAACUACUGGCUUACCUAA	0.00125 ± 0.0082
CUUAAGGAGAGGAUCAACAGGGUUACCUAA	0.000359 ± 0.011
CUUAAGGAGACCUAGUACUGGGUUACCUCAA	0.000341 ± 0.031
CUUAACCUCAGCAUCUACUGGGUUACCUAA	0.111 ± 0.027
CUUAAGGUCUGGAUCUACUCGGGUUACCUAA	0.000576 ± 0.02

An excerpt of these results, as labelled records:
CUUAAGGAGACGAUCUACUGGGUUGCCUAA
  pre-steady-state target cleavage rate: 0.00438 ± 0.0046
CUUAAGGAGAGGAGCUACUGGGUUACCUAA
  pre-steady-state target cleavage rate: 0.00331 ± 0.0043
CUUAAGGAGAGGUUCAACUGGGUUACCUAA
  pre-steady-state target cleavage rate: 0.00118 ± 0.0053
CUUAAGGUCUGGAUCUACUGGGAAUCCUAA
  pre-steady-state target cleavage rate: 0.00153 ± 0.0057
